PMC10163288
The other results are listed elsewhere or left out.

B1: il10ra_site1_sap_15_mot_HHH_b2_07540_000000184_0001_1_15_H_._466e3adc427fd7647ce2a7b00f41f3a6_0001_af2_0001_0000100002_0000002_0_0001 (protein)
chain: SSSSDAEELAEEVIEELKELRERGDHDEVYRLVKEAIEQLIELNNQEALRLLMEFVARLFSSSSS
B2: il10ra_site1_sap_20_mot_HHH_b1_03314_af2_000000278_0001_42_55_H_._HHH_b2_01043_0001_0000400013_0000001_0_0001_af2pred_0001 (protein)
chain: SSSSDTEELREEVEELLRKLEELGDEEAVRQLRILLKAAEQNKNPRSLEAAARLAEDALKLSSSS
B3: il10ra_site1_normal_mot_HHH_b1_05937_af2_000000262_0001_20_37_H_._HHH_b2_05818_af2_0001_0000300009_0000001_0 (protein)
chain: SSSSDEEEVEERVEELLERAEKIEDLHEVLRLLIEALRLAFEARDDELLQLIWEVAEELRSSSSS
B4: il10ra_site1_sap_17_mot_HHH_b2_02933_000000199_0001_1_19_H_._HHH_b2_04719_af2_0001_0000800038_0000001_0_0001_af2pred_0001 (protein)
chain: SSSSSDEEEVEKRIEELLEEAKHIPDRHRAAYALIRAYALANEVRSEELRRLVEEVAKRLSSSSS
B5: il10ra_site1_sap_20_mot_HHH_b1_05189_000000097_0001_43_57_H_._HHH_b2_08174_af2_0001_0000100002_0000001_0_0001 (protein)
chain: SSSSSSEEEEVRREVEELLEEAKEVDREEAMKLLLRAIRLAYQVSDPELLQLIWEVLRRNSSSSS
B6: il10ra_site1_normal_mot_15066a8f41c19a04ca9a9f0a9d91fe83_0001_000000267_0001_1_12_H_._230fcc1677eb0c512f32732c1a7e1c83_0001_0001_0000200007_0000001_0 (protein)
chain: SQNEEALKYLIEQNSPIIKFTIEALERAVELGDPSARELVEELLELAKELGNEEIEELLEEVLRR
B7: il10ra_site1_sap_19_mot_HHH_eva_0271_af2_000000157_0001_1_17_H_._HHH_b1_07722_0001_0000200013_0000001_0_0001 (protein)
chain: SSSSDDEVSQEIYELIQKAAELANEGDEEEAEKVLERAKELAEELGNRLFLMQIEFLERHASSSS
B8: il10ra_site1_normal_mot_HHH_b2_03438_af2_000000049_0001_18_34_H_._HHH_b1_02262_0001_0000200021_0000002_0 (protein)
chain: SSSSDEEEQRVEELLRRAEELIEEGNPEEAYELLREAAELAHELEDPELSRRVLEVSRKLTSSSS
B9: il10ra_site1_normal_mot_HHH_b1_05088_af2_000000046_0001_20_36_H_._HHH_b2_08025_0001_0000200022_0000001_0 (protein)
chain: SSSSSDLEEEVEELLEEAREIEDPEERYKVLKEAIEVASERGDPELFRLIMKFLEELFRGSSSSS
B10: il10ra_site1_normal_mot_HHH_b2_06979_000000158_0001_42_57_H_._HHH_b2_00250_0001_0000300009_0000001_0 (protein)
chain: SSSSTEVQELYELARRLVEALAEGDEELVRELAEELEKLAEELNNELFLINARFILRDVESSSSS
B11: il10ra_site1_sap_19_mot_HHH_b1_06786_000000000_0001_1_20_H_._HHH_b1_00949_0001_0000500018_0000002_0_0001 (protein)
chain: SSSSDEEREEVEELLEEAEQIEDPEERIKVLFRAVHLANQAGDPEATRAVWEVFRRLIKNSSSSS
B12: il10ra_site1_normal_mot_HHH_b2_03220_af2_000000223_0001_23_40_H_._HHH_b2_00293_0001_0000200015_0000002_0 (protein)
chain: SSSSSEENEEAWEIIKEILEAAQRNDEERLEELLERLEELVRQSGSPIFEFSLRILERQLSSSSS
B13: il10ra_site1_sap_18_mot_HHH_b2_00943_af2_000000149_0001_1_17_H_._HHH_b2_04128_af2_0001_0000300012_0000002_0_0001 (protein)
chain: SSSSSSWRELAREAMFLAARKGDQQASVEVIRIYAAVEQGEAPEEWAEEALKELIEELKSSSSSS
B14: il10ra_site1_normal_mot_HHH_b2_00988_000000064_0001_1_19_H_._HHH_b1_01270_af2_0001_0000100003_0000001_0 (protein)
chain: SSSDLEERVEKIVKELKELLEEGDPDEFYKLLRELIELAHEYNDEEAEELAHELIREFIRKSSSS
B15: il10ra_site1_sap_18_mot_0c70b1737afd558c88fc2c362a6b1452_0001_1_af2_000000019_0001_15_31_H_._fe74bfd50694bb190af954a823403fd2_0001_0001_0001100013_0000001_0_000 … (protein)
chain: SSSSSDQLEEFEERIEELIRRGDLEEAEELLKELAEIVLQKRDEEAAEVYLRLWVEIARLSSSSS
B16: il10ra_site1_normal_mot_HHH_b1_02708_af2_000000019_0001_23_39_H_._HHH_b1_04932_0001_0000500050_0000001_0 (protein)
chain: SSSSSEEEERISELLQRIVRLVAEGDPERAQELLEEVRELIEEAGDDEFERYLEILERFLNSSSS
B17: il10ra_site1_normal_mot_HHH_b1_00929_000000068_0001_1_20_H_._HHH_b1_00134_0001_0000500065_0000001_0 (protein)
chain: SSSSDEELEETLRELREAAEEGDLELFWELARKALELARELGDEEALREIQRLVRLILENASSSS
B18: il10ra_site1_sap_20_mot_HHH_b2_04050_000000291_0001_1_20_H_._HHH_b2_01265_af2_0001_0000200010_0000002_0_0001_af2pred_0001 (protein)
chain: SSSSSEVEKAAARVLYLAARLGDDEAAIAVIRVFARLNSGETSEEEAEEILEELAERLRSSSSSS
B19: il10ra_site1_normal_mot_HHH_b2_00984_000000042_0001_1_20_H_._HHH_b2_06425_af2_0001_0000800033_0000001_0 (protein)
chain: SSSSDEELKEELEELIKEVKELLERGNTREASRLAQEILRLIYRLGDQELLQELWEIIKSGSSSS
B20: il10ra_site1_sap_18_mot_HHH_b1_01821_000000158_0001_23_39_H_._HHH_b1_02316_af2_0001_0000400011_0000001_0_0001 (protein)
chain: SSSSSDDTQRIYELIKRAIELMTEGNPEEAREVVEEAIELAEEAGSPILLKILEMILEELSSSSS
B21: il10ra_site1_normal_mot_HHH_b2_06199_000000213_0001_1_17_H_._HHH_b1_05925_0001_0000100007_0000002_0 (protein)
chain: SSSSDEERLRLSLRFARLLIEQGDPEAARRLLKAALDVARRNGDEELVEEIEELLEKLEGSSSSS
B22: il10ra_site1_sap_19_mot_HHH_b1_02815_af2_000000247_0001_3_20_H_._HHH_b2_06208_0001_0000100006_0000002_0_0001 (protein)
chain: SSSSSEEEKELEEFLERLRELVERGDPEEFAKLVIELLELIYRLSDEEALRELWRLLHEEASSSS
B23: il10ra_site1_sap_13_mot_HHH_b1_05357_000000034_0001_23_39_H_._HHH_b1_08654_0001_0000100008_0000002_1_0001_af2pred_0001 (protein)
chain: SSSSSAREEAERLFEEAEELIEQGDLRRVFELIRRIAELAAEFNDPEIEKLAQELLRLLLSSSSS
B24: il10ra_site1_normal_mot_HHH_b1_01879_000000050_0001_1_18_H_._HHH_b2_01804_0001_0000200011_0000001_0 (protein)
chain: SSSSDLEEEVEEAIERAEELLKRGNKKEALRLLFQIQIKAWRNNNEELVQLLAEVSIRISRSSSS
B25: il10ra_site1_normal_mot_8756ee2cf497b5429c717dfc0c0bcfd6_0001_000000186_0001_1_13_H_._HHH_b2_03977_0001_0000500031_0000002_0_af2pred_0001 (protein)
chain: SSSSSEVAEQVQRLIREALRLLNEGNPEEAEEVLREALELAREGNNEVLRVQVEYLLKLLTSSSS
B26: il10ra_site1_sap_16_mot_HHH_b1_00682_000000235_0001_1_20_H_._HHH_b2_04962_0001_0000500059_0000001_0_0001 (protein)
chain: SSSSSQEVYELLREALELLDQGNKEEAQEVVEEAERIAEELGNPLFEMQVRFIERDVKLRSSSSS
B27: il10ra_site1_sap_10_mot_HHH_b1_05704_af2_000000048_0001_1_18_H_._HHH_b2_04382_0001_0000100002_0000001_0_0001 (protein)
chain: SSSSSEEEEYVKLALRFVRWLLEAGDPEAARFYVEWALEKAKELGNEELEEEAEELLREARSSSS
B28: il10ra_site1_normal_mot_HHH_b2_04912_000000028_0001_1_20_H_._HHH_b1_06425_af2_0001_0000300010_0000001_1 (protein)
chain: SSSSDEELQRALELAREAFRLLLRGNPEEAQELLEEALELAEKLGSPLARTIRELLQALKSSSSS
B29: il10ra_site1_sap_22_mot_HHH_b2_04050_000000291_0001_1_20_H_._HHH_b1_05770_0001_0000100005_0000002_0_0001_af2pred_0001 (protein)
chain: SSSSSDEELRKEVEELLEEAKEIDDPEEAAEVLQRAARLAWELGDPELFHLVWRVAQENKSSSSS
B30: il10ra_site1_sap_23_mot_HHH_b1_03763_000000209_0001_22_38_H_._HHH_b2_01833_0001_0000100007_0000002_0_0001_af2pred_0001 (protein)
chain: SSSSDDEERLRLTLEAIEWAIKAGDEEAARLLIRAARQLAERDGNEEILKRLEELLEELNSSSSS
B31: il10ra_site1_sap_15_mot_HHH_b2_01310_000000089_0001_41_55_H_._HHH_b1_08154_af2_0001_0000300011_0000001_0_0001 (protein)
chain: SSSSSTQEVMKLIRRAMELAQEGNEEEAREVLEEARELAEEENNWALRWAIEHVEKVLNSSSSSS
B32: il10ra_site1_normal_mot_HHH_b2_08144_af2_000000046_0001_38_52_H_._HHH_b2_05514_af2_0001_0001100019_0000001_0_af2pred_dldesign_0_af2pred (protein)
chain: SSSSSSSPETERIVALIREAAELEDKEKARELLEEALELAEKNNNPILIDTARFLLRQVSSSSSS
B33: il10ra_site1_sap_25_mot_HHH_b1_04582_000000276_0001_1_18_H_._HHH_b1_00915_0001_0000200030_0000002_0_0001 (protein)
chain: SSSSDEQERAVERFARAMLEAVERDPRIREEAEKYVRMMHWFAKDPEVREVIEEILEELRSSSSS
B34: il10ra_site1_normal_mot_HHH_b1_03065_af2_000000286_0001_1_17_H_._HHH_b2_00454_0001_0000100004_0000001_0_af2pred_0001 (protein)
chain: SSSSSDEFFERVYELLRRVAELAEQGNPEEAERLLEEAKELAEEANNPYLKLAIEFVERRNSSSS
B35: il10ra_site1_normal_mot_HHH_b1_03900_000000129_0001_1_16_H_._HHH_b1_08130_0001_0000900038_0000002_0_af2pred_dldesign_0_af2pred (protein)
chain: SSSSDGVARARELYARILEALAAGDPVTAAALLKELADVAAETQDPEAQRLALEAARLLLESSSS
B36: il10ra_site1_normal_mot_HHH_b2_00345_af2_000000013_0001_42_56_H_._HHH_b1_07352_af2_0001_0000300020_0000002_0 (protein)
chain: SSSSTEVQEIAARAVQLAFRLSDEETLQELWELFKKYIEEGDEEYRERLEELLEELEERLSSSSS
B37: il10ra_site1_sap_17_mot_HHH_b2_00441_000000147_0001_1_18_H_._HHH_b1_07716_0001_0000800059_0000001_0_0001_af2pred_0001 (protein)
chain: SSSSDVEEQVKRLLLEALEIRDPEERKEVLEEAERLARENNDPELELLVEAAKFLIEESFSSSSS

The binders below were run against il10ra, Q13651 (assay: yeast display titration).

Apparent Kd, inactive:
B1 no binding seen, B2 no binding seen, B3 no binding seen, B4 no binding seen, B5 no binding seen, B6 no binding seen, B7 no binding seen, B8 no binding seen, B9 no binding seen, B10 no binding seen, B11 no binding seen, B12 no binding seen, B13 no binding seen, B14 no binding seen, B15 no binding seen, B16 no binding seen, B17 no binding seen, B18 no binding seen, B19 no binding seen, B20 no binding seen, B21 no binding seen, B22 no binding seen, B23 no binding seen, B24 no binding seen, B25 no binding seen, B26 no binding seen, B27 no binding seen, B28 no binding seen, B29 no binding seen, B30 no binding seen, B31 no binding seen, B32 no binding seen, B33 no binding seen, B34 no binding seen, B35 no binding seen, B36 no binding seen, B37 no binding seen
